Test results reported in PubChem BioAssay AID540276 (National Center for Advancing Translational Sciences (NCATS), 2011).
Among all 300,000 compounds or so, about 5,400 (1.8%) were called active. The shares of active, inactive and inconclusive entries below differ from those in the screen. Calls come from the whole dose curve; tested in HEK293 cells. Where the call is inconclusive, the potency comes from a doubtful curve fit.

Assay: qHTS for inhibitors of binding or entry into cells for Marburg Virus
Settings: Marburg virus pseudotyped entry inhibition, cell reporter; activity change, negative = inhibition: at 37.8 µM (top of the series) unless noted
% is set by controls: 0 for no effect and ±100 for the full control effect; potency is the fitted concentration of half-maximal effect.

Structure (SMILES) | Potency | activity change, negative = inhibition
CSc1nc(=O)n2cc(C)ccc2n1 | inconclusive: 35.5 µM [activator, single point] | –
COc1ccc2[nH]c3c(c2c1)CCN(C(=O)CCC1CCCC1)C3c1ccc(F)cc1 (configuration not stated) | active: 0.631 µM | –
CC(C)(C)c1nnc(N/N=C/c2ccccc2)n(N)c1=O | inconclusive: 31.6 µM [inhibitor, single point] | –
O=C(c1ccco1)c1cn(CC(=O)N2CCCCCC2)c2ccccc12 | – | inactive: 2.85%
COc1ccc(CCNCc2csc3nc4ccccc4n23)cc1OC | inconclusive: 5.62 µM [inhibitor, single point] | –
COc1ccc2nc(SCC(=O)Nc3cc(OC)c(OC)cc3C(=O)O)c(C)cc2c1 | inconclusive: 1.26 µM [inhibitor, full curve, poor fit] | –
CCC(C)c1ccc(OCc2ccc(C(=O)OC)o2)cc1 (configuration not stated) | inconclusive: 25.1 µM [inhibitor, single point] | –
CC(=O)N1CCc2cc(S(=O)(=O)NC(Cc3ccccc3)C(=O)NCc3ccccc3)ccc21 (configuration not stated) | – | inactive: -22.6% [at 46.1 µM]
Clc1ccc2c(c1)C(OC1CN3CCC1CC3)c1ccccc1CS2 (configuration not stated) | inconclusive: 14.6 µM [inhibitor, partial curve, poor fit] | –
CCN(CC)CCCn1c2c(c(SCC(=O)Nc3ccc(C)c(F)c3)nc1=O)CCC2 | inconclusive: 35.5 µM [inhibitor, single point] | –
CN(C)c1ccc(/C=N/NC(=O)COc2ccccc2)cc1 | – | inactive: -11.8% [at 46.1 µM]
COc1ccc(C(=O)COC(=O)c2cc(=O)[nH]c3ccccc23)c(OC)c1 | inconclusive: 3.55 µM [activator, single point] | –
CC(=O)N1CCc2c(sc3c2c(=O)n(-c2ccccc2)c(=O)n3CC(=O)c2ccccc2)C1 | inconclusive: 0.631 µM [inhibitor, full curve, poor fit] | –
COc1ccc(NC(=O)Nc2cc(-c3cn4cccnc4n3)ccc2C)cc1 | inconclusive: 35.5 µM [activator, single point] | –
Cc1ccc(NS(=O)(=O)c2ccc3c(c2)oc(=O)n3C)cc1 | inconclusive: 1.26 µM [inhibitor, single point] | –
COc1ccc(N(CC(=O)NCc2ccc3c(c2)OCO3)C(=O)c2csnn2)cc1 | inconclusive: 12.6 µM [activator, single point] | –
Cc1ccc2c(c1)-c1nc(-c3ccc4c(c3)NC(=O)CO4)cc(-c3ccccc3)c1CO2 | – | inactive: -2.24% [at 46.1 µM]
CCc1ccccc1NC(=O)CSc1nnc(CCNC(=O)OC(C)(C)C)o1 | inconclusive: 4.47 µM [inhibitor, partial curve, poor fit] | –
CCOc1cc(C(=O)Nc2cc3c(cc2N2CCCC2)n(C)c(=O)c(=O)n3C)cc(OCC)c1OCC | – | inactive: -8.14% [at 46.1 µM]
COC(=O)c1ccc(C2NC(=S)N(c3ccccc3)C(C)=C2C(=O)Nc2ccccc2OC)cc1 (configuration not stated) | inconclusive: 20.6 µM [inhibitor, single point] | –
COc1ccccc1Oc1ccc(S(=O)(=O)N2CCCCC2)cc1NC(=O)CCNC(C)=O | – | inactive: 16.5%

Two of the compounds above, as a markdown table:

| Structure (SMILES) | Potency | activity change, negative = inhibition |
| --- | --- | --- |
| Clc1ccc2c(c1)C(OC1CN3CCC1CC3)c1ccccc1CS2 (configuration not stated) | inconclusive: 14.6 µM [inhibitor, partial curve, poor fit] | – |
| CCN(CC)CCCn1c2c(c(SCC(=O)Nc3ccc(C)c(F)c3)nc1=O)CCC2 | inconclusive: 35.5 µM [inhibitor, single point] | – |

(continued)

Structure (SMILES) | Potency | activity change, negative = inhibition
Cc1ccc(S(=O)(=O)N(C)C)cc1-n1c(SCC(=O)Nc2ccccc2)nc2ccccc2c1=O | inconclusive: 0.0731 µM [inhibitor, partial curve, poor fit] | –
O=C(CSc1ncnc2nc[nH]c12)c1ccc([N+](=O)[O-])cc1 | inconclusive: 0.355 µM [inhibitor, full curve, poor fit] | –
C=CCNC(=O)COc1cc(C)ccc1C | inconclusive: 2.51 µM [activator, full curve] | –
NNC(=O)CNC(=O)c1ccccc1F | – | inactive: 15%
Cc1ccc(OCCOc2cccc(/C=N/NC(N)=O)c2)cc1 | inconclusive: 7.08 µM [activator, full curve] | –
CCCN(CCC)C(=O)c1ccc2c(=O)n(Cc3ccco3)c(=S)[nH]c2c1 | – | inactive: 6.07%
Cc1ccc(S(=O)(=O)N(C)c2ccc(NS(C)(=O)=O)cc2)cc1 | inconclusive: 35.5 µM [inhibitor, single point] | –
CC(=O)c1ccc(N(C(=O)Cn2nnc3ccccc32)C(C(=O)NCc2ccccc2)c2ccccn2)cc1 (configuration not stated) | inconclusive: 3.98 µM [activator, full curve, poor fit] | –
Cc1ccc(-c2nn(C(C)(C)C)c3ncnc(NS(=O)(=O)c4ccc([N+](=O)[O-])cc4)c23)cc1 | inconclusive: 6.31 µM [inhibitor, single point] | –
N#CC1=C(N)C(C#N)(C#N)[C@H](c2ccncc2)[C@H]2CN(C(=O)OCc3ccccc3)CC=C12 | inconclusive: 10.3 µM [inhibitor, partial curve, poor fit] | –
O=c1oc(-c2cccnc2)nc2ccccc12 | – | inactive: -28.3%
O=C(NNC(=O)c1cc2ccccc2oc1=O)c1ccccc1 | – | inactive: 22.1% [at 46.1 µM]
O=C(O)c1cc(=O)c2c(Cl)cc(Cl)cc2[nH]1 | inconclusive: 1.26 µM [inhibitor, partial curve] | –
CCn1cc(C(=O)NCc2ccco2)c(=O)c2cc(S(=O)(=O)N3CC(C)CC(C)C3)ccc21 (configuration not stated) | inconclusive: 23.1 µM [inhibitor, partial curve, poor fit] | –
COc1cccc(CNCCc2c[nH]c3ccccc23)c1OCc1ccc(F)cc1 | inconclusive: 35.5 µM [inhibitor, single point] | –
Clc1ccc(OCCn2ccnc2)c2ccccc12 | inconclusive: 6.51 µM [activator, single point] | –
Nc1nnnn1/N=C\c1ccc(Cl)c([N+](=O)[O-])c1 | inconclusive: 32.6 µM [inhibitor, single point] | –
O=C(Nc1ccc(F)c(Cl)c1)c1ccc2c(Cl)c3c(nc2c1)CCCC3 | inconclusive: 11.2 µM [activator, partial curve, poor fit] | –
Cc1cc(C)c2c(n1)nn1c(NCCCN(C)C)cc(C)nc21 | inconclusive: 18.3 µM [inhibitor, single point] | –
O=C(COC(=O)c1ccc(NS(=O)(=O)c2cccs2)cc1O)NC1CCCCC1 | inconclusive: 35.5 µM [inhibitor, single point] | –
CCc1ccc(-c2csc(NC(=O)COC(=O)CCc3nc4ccccc4s3)n2)cc1 | – | inactive: 42%
